No constants are given. Whether binding was seen depends on the method and setting. Binding seen in cells or lysates may run through a third protein. These calls come from enrichment with a bait or labelling near it, and not all partners need be listed.
Biological target: T1, E2F transcription factor 7 (E2F7), endogenous (human (endogenous in HONE-1 and SUNE-1)) (UniProt Q96AV8)
T1 sequence: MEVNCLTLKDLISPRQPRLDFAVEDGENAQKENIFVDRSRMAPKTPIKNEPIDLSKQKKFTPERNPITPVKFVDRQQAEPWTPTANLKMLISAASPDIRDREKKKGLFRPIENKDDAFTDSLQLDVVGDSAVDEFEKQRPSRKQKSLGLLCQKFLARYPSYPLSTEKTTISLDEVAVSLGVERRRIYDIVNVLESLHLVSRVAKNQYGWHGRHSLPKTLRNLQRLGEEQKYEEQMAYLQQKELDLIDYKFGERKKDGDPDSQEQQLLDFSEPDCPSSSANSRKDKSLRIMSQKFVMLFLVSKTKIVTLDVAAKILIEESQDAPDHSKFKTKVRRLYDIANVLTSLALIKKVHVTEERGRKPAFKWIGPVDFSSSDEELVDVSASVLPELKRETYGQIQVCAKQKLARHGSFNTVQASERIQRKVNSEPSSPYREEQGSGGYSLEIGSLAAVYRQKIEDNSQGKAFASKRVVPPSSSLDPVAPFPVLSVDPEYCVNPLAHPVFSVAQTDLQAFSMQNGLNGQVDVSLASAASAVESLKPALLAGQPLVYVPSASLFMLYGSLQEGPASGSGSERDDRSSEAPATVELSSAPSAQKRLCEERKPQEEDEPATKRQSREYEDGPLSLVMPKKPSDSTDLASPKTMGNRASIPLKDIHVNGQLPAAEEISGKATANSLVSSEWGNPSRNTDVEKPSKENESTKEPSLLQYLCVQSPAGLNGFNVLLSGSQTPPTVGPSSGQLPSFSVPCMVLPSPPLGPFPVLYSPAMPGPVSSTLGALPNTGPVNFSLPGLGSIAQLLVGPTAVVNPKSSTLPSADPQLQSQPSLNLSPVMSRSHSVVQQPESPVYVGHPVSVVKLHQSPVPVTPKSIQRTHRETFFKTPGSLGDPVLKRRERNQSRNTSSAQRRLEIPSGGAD
Assay: affinity purification with mass spectrometry; E2F7 immunoprecipitated from HONE-1 cell lysate (Pierce Co-Immunoprecipitation Kit, 4 °C overnight), immunocomplexes analysed by mass spectrometry

Sequences of proteins named here, by UniProt entry; tags and fusion partners are left off.
UniProt Q13951: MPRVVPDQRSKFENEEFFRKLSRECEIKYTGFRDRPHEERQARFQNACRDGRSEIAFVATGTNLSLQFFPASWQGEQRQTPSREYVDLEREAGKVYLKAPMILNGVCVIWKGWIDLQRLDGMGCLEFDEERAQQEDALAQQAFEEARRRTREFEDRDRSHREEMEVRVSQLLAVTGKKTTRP

binding: binds
Substance: Core-binding factor subunit beta (CBFB), endogenous (from UniProt Q13951 1-182)

Source: paper PMC10235437
